Measurements: patent US20230333112A1
No constants are given. Whether binding was seen depends on the method and setting. Some entries that bind do so weakly or less than the wild type.

By UniProt entry, the sequences of proteins in these tests, tags left out. Residues count along the entry.
UniProt P01850, residues 1-129: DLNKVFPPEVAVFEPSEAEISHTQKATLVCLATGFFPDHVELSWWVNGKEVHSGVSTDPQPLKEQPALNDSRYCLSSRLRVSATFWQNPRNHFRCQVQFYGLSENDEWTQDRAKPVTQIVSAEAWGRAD

B1: JOVI.1 (murine anti-TRBC1 antibody, bivalent mAb) (antibody, V domains shown)
VH: EVRLQQSGPDLIKPGASVKMSCKASGYTFTGYVMHWVKQRPGQGLEWIGFINPYNDDIQSNERFRGKATLTSDKSSTTAYMELSSLTSEDSAVYYCARGAGYNFDGAYRFFDFWGQGTTLTVSS
VL: DVVMTQSPLSLPVSLGDQASISCRSSQRLVHSNGNTYLHWYLQKPGQSPKLLIYRVSNRFPGVPDRFSGSGSGTDFTLKISRVEAEDLGIYFCSQSTHVPYTFGGGTKLEIK
B2: BIM0446 (JOVI.1 Fab) (Fab, V domains shown)
VH: EVRLQQSGPDLIKPGASVKMSCKASGYTFTGYVMHWVKQRPGQGLEWIGFINPYNDDIQSNERFRGKATLTSDKSSTTAYMELSSLTSEDSAVYYCARGAGYNFDGAYRFFDFWGQGTTLTVSS
VL: DVVMTQSPLSLPVSLGDQASISCRSSQRLVHSNGNTYLHWYLQKPGQSPKLLIYRVSNRFPGVPDRFSGSGSGTDFTLKISRVEAEDLGIYFCSQSTHVPYTFGGGTKLEIK
B3: BIM0460 (humanized JOVI.1 Fab) (Fab, V domains shown)
VH: QVQLVQSGAEVKKPGSSVKVSCKASGYTFTGYVMHWVRQAPGQGLEWMGFINPYNDDIQSNERFRGRVTITSDKSTTTAYMELSSLRSEDTAVYYCARGAGYNFDGAYRFFDFWGQGTLVTVSS
VL: DVVMTQSPLSLPVTLGQPASISCRSSQRLVHSNGNTYLHWYQQRPGQSPRLLIYRVSNRFPGVPDRFSGSGSGTDFTLKISRVEAEDVGVYFCSQSTHVPYTFGGGTKVEIK

Experiments:
[1] = target: hTRBC1, BIM0444 (human) (UniProt P01850); test: ELISA (FIG. 7)
[2] = target: hTRBC1, BIM0444 (human) (UniProt P01850); test: ELISA; antibody coated at 1 ug/mL, hTRBC1 BIM0444 titrated, anti-his tag HRP detection
[3] = target: hTRBC1, BIM0444 (human) (UniProt P01850); test: BLI (Octet); hTRBC1 BIM0444 loaded on Protein A biosensors, Fab 50 nM to 0.78 nM in solution
[4] = target: hTRBC1, BIM0444 (human) (UniProt P01850); test: BLI (Octet) (FIG. 8)

Row | Binder | binding [1] | binding [2] | binding [3] | binding [4]
1 | B1 | binds | binds | – | –
2 | B2 | – | – | binds | binds
3 | B3 | – | – | binds | binds
